According to PubChem BioAssay AID493014 (National Center for Advancing Translational Sciences (NCATS), 2011):
This is one part of the list. Further columns of the screen follow, without active or inactive calls. Most of these compounds were active or inconclusive in the main read-out, so they are no random draw. Words in brackets tell the shape of the fitted curve; partial curves, single points and poor fits give uncertain potencies.

Test: qHTS Assay to Find Inhibitors of Chronic Active B-Cell Receptor Signaling
Conditions: ABC-DLBCL IkBa-CBG/CBR reporter, luminescence ratio (green luciferase fused to IkBa over red control in TMD8 lymphoma cells), 4 h
Summary of the method: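 Concentration-response series (up to 46 uM) were applied to TMD8 dual-reporter cells for 4 h at 37C with doxycycline. Green/red ratio, after filter-overlap correction, defined %Activity; red signal alone was normalised to basal cells and zero luminescence.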

[1] = measured here: CBR red luminescence, cell number

For `Clc1cccc(-c2nc(NCCN3CCOCC3)c3ccccc3n2)c1`, the AC50 [1] was 17.8 µM [falling, single point].

In the case of `CCOC(=O)N1CCN(C(=O)c2cc(COc3ccc(OC)cc3Cl)on2)CC1`, the AC50 [1] is reported as 25.1 µM [falling, single point].

In the case of `O=C(Nc1ccccc1F)Nc1ccc([N+](=O)[O-])cc1Cl`, the AC50 [1] is reported as 0.316 µM [rising, full curve, poor fit].

In the case of `Cc1ccc(-c2cnn(-c3ccccc3)c2N)cc1`, the AC50 [1] is reported as 3.55 µM [falling, full curve].

In the case of `COCCNC(=O)c1cccc(OC2CCN(Cc3cccc(C(C)=O)c3)CC2)c1`, the AC50 [1] is reported as 22.4 µM [rising, single point].

With `CCOC(=O)c1csc(NNC=O)n1` the AC50 [1] was 0.731 µM [rising, full curve, poor fit].

With `COc1ccc(-c2csc(Nc3ccc(O)cc3)n2)cc1` the AC50 [1] was 1.41 µM [falling, full curve].

In the case of `O=C(/C=C/c1cccc(C(F)(F)F)c1)Nc1cccc(C(F)(F)F)c1`, the AC50 [1] is reported as 35.5 µM [falling, single point].

For `Cn1nnc2cc(C(=O)Nc3ccc(Cl)cc3)ccc21`, the AC50 [1] was 31.6 µM [rising, single point].

For `NC(=O)c1ccccc1NC(=O)Nc1ccc(F)c(Cl)c1`, the AC50 [1] was 12.6 µM [falling, partial curve, poor fit].

For `COc1cc(OC)cc(-c2cc3nc(C)c(CCC(=O)NCc4ccccc4)c(C)n3n2)c1`, the AC50 [1] was 6.31 µM [falling, partial curve].

With `O=C1CS/C(=N\C(=O)N2c3ccccc3Sc3ccccc32)N1` the AC50 [1] was 25.9 µM [rising, single point].

In the case of `O=C(CNC(=O)c1ccccc1Cl)Nc1ccc(F)cc1`, the AC50 [1] is reported as 5.8 µM [falling, partial curve].

In the case of `Cc1ccccc1Nc1nn2c(=O)c3ccccc3nc2s1`, the AC50 [1] is reported as 0.224 µM [falling, full curve, poor fit].

For `COc1ccccc1Nc1nc2nonc2nc1N1CCCCC1C` (stereo not given), the AC50 [1] was 32.6 µM [rising, partial curve, poor fit].

With `Cc1ccc(-n2c(SCc3ccc(C#N)cc3)nnc2-c2ccccn2)cc1` the AC50 [1] was 1.41 µM [rising, partial curve, poor fit].

With `NC(=O)C1(N2CCCCC2)CCN(CC(=O)Nc2ccccc2-c2ccccc2)CC1` the AC50 [1] was 11.6 µM [falling, single point].

With `O=C(N/N=C/c1ccccn1)c1c[nH]c2ccccc12` the AC50 [1] was 22.4 µM [falling, single point].

For `Cc1cc2oc(C(=O)Nc3nonc3C)c(C)c2cc1C`, the AC50 [1] was 8.91 µM [rising, partial curve].

In the case of `Cc1ccc(NC(=O)CC(=O)c2ccc([N+](=O)[O-])cc2)cc1S(=O)(=O)Nc1cccc(Cl)c1`, the AC50 [1] is reported as 3.16 µM [falling, full curve, poor fit].

With `O=C1CC(C(=O)Nc2ccc(C(=O)O)cc2)C(c2ccccc2)O1` (stereo not given) the AC50 [1] was 35.5 µM [falling, single point].

With `CC(C)c1ccc(NC(=O)COc2nncc3ccccc23)cc1` the AC50 [1] was 9.2 µM [rising, partial curve, poor fit].

With `CCOc1cc(S(=O)(=O)NCCN2CCOCC2)c(C)cc1C` the AC50 [1] was 20.6 µM [rising, single point].

In the case of `CCOC(=O)c1c(NC(=O)CC2SC(=NC)N(C)C2=O)sc(C)c1C` (stereo not given), the AC50 [1] is reported as 25.9 µM [rising, single point].

With `CC1CN(c2nc3c(c(=O)n(Cc4ccc(Cl)cc4)c(=O)n3C)n2C)CC(C)O1` (stereo not given) the AC50 [1] was 1.41 µM [falling, partial curve, poor fit].

In the case of `COc1ccc(NC(=O)CCCN2C(=O)C(c3ccccc3)Oc3cccnc32)c(OC)c1` (stereo not given), the AC50 [1] is reported as 3.55 µM [rising, partial curve, poor fit].

With `O=C(O)CCc1ccc(-c2ccccc2)n1NC(=O)c1sc2ccccc2c1Cl` the AC50 [1] was 29.1 µM [falling, single point].

For `O=C(CCC(=O)OCC(=O)c1ccc(F)cc1)NC1CCCCC1`, the AC50 [1] was 7.31 µM [rising, full curve, poor fit].

For `C[C@H](NC(=O)c1nc[nH]c1C(=O)NCc1ccc(CNC(=O)OC(C)(C)C)cc1)c1ccccc1`, the AC50 [1] was 29.1 µM [falling, single point].

For `CCCCC/C=C\C/C=C\C/C=C\C/C=C\CCCC(=O)O`, the AC50 [1] was 8.2 µM [rising, partial curve] and the AC50 (measured here: IkBa-CBG green luminescence) was 5.8 µM [falling, partial curve].

With `Cc1ccc(/C=C2\SC(=S)N(CCCC(=O)Nc3ccc(O)cc3)C2=O)cc1` the AC50 [1] was 2.51 µM [falling, partial curve].

In the case of `COc1ccccc1OCC(=O)Nc1cc2c(cc1C(=O)O)OCCCO2`, the AC50 [1] is reported as 20 µM [falling, partial curve, poor fit].

For `CCCn1nnnc1SCC(=O)Nc1cccc(NC(=O)c2ccco2)c1`, the AC50 [1] was 1.46 µM [falling, full curve, poor fit].

In the case of `O=C(CSc1n[nH]c(-c2ccco2)n1)Nc1sc2c(c1C(=O)Nc1ccccc1)CCCC2`, the AC50 [1] is reported as 10.3 µM [falling, partial curve].

For `CCCc1[nH]nc2c1C(/C(C)=C/c1ccccc1)C(C#N)=C(N)O2` (stereo not given), the AC50 [1] was 11.2 µM [falling, partial curve, poor fit].

For `CC(=O)N1CCc2cc(Br)cc(S(=O)(=O)CCC(=O)N3CCN(c4ccccn4)CC3)c21`, the AC50 [1] was 17.8 µM [falling, single point].

For `O=C(NCCc1ccccc1)c1cnc2n(c1=O)CCS2`, the AC50 [1] was 12.6 µM [falling, single point].

For `Cc1ccccc1N(CC(=O)N/N=C/c1ccc(N(C)C)cc1)C(=O)c1ccccc1`, the AC50 [1] was 20.6 µM [falling, partial curve, poor fit].

For `O=C(N/N=C/c1cc(Cl)ccc1O)c1cccnc1`, the AC50 [1] was 31.6 µM [falling, single point].

For `Nc1ccc(OCc2ccccc2)cc1`, the AC50 [1] was 5.17 µM [falling, partial curve, poor fit].

For `CSc1ccccc1C(=O)N1CCCC(CCC(=O)NCc2ccc(F)c(F)c2)C1` (stereo not given), the AC50 [1] was 25.1 µM [falling, single point].

For `O=C(NCCN1CCN(c2ccccc2Cl)CC1)Nc1ccccc1`, the AC50 [1] was 17.8 µM [rising, partial curve, poor fit].

With `CCOC(=O)c1ccc(S(=O)(=O)N2CCN(C3CCCC3)CC2)cc1` the AC50 [1] was 2.82 µM [falling, partial curve].

With `C=CCn1c(SCC(=O)Nc2cc(C)c(Cl)cc2OC)nnc1-c1ccco1` the AC50 [1] was 14.1 µM [falling, single point].

In the case of `O=C1N[C@H](Cc2ccccc2)COC(=O)[C@H](Cc2ccc(F)cc2)CC/C=C/C[C@H]1CC(=O)N(CCO)Cc1ccccc1`, the AC50 [1] is reported as 29.1 µM [falling, single point].

For `CC(=O)n1cc([C@@H]2C=C(C(=O)Nc3ccccc3)O[C@H](OCCCCO)C2)c2ccccc21`, the AC50 [1] was 35.5 µM [falling, single point].

With `Cc1ccc2[nH]c(C)c(/C=C/c3cc[n+](C)cc3)c2c1` the AC50 [1] was 6.31 µM [falling, partial curve, poor fit].

With `Cc1ccc(/C=N/NC(=O)c2c[nH]c3ccccc23)o1` the AC50 [1] was 14.6 µM [falling, partial curve, poor fit].

With `Cc1cc(Nc2ccccc2)c2c([N+](=O)[O-])ccc(C)c2n1` the AC50 [1] was 25.9 µM [rising, single point].

With `C/C(=N\NC(=S)NCc1ccccc1)c1ccccc1` the AC50 [1] was 2.59 µM [rising, partial curve, poor fit].

For `COc1ccc(C(=O)NC2CCCc3ccccc32)cc1[N+](=O)[O-]` (stereo not given), the AC50 [1] was 17.8 µM [rising, single point].

In the case of `FC(F)(F)c1cc(-c2ccccc2)nc(N2CCCCCC2)n1`, the AC50 [1] is reported as 0.82 µM [falling, partial curve, poor fit].

With `Cc1cc(C(=O)O)ccc1-n1c(C)cc(C=C2C(=O)c3ccccc3C2=O)c1C` the AC50 [1] was 35.5 µM [rising, partial curve, poor fit].

With `COc1cc(OC)cc(C(=O)NC(C)c2cnn(-c3ccccc3C)c2C)c1` (stereo not given) the AC50 [1] was 14.1 µM [falling, single point].

With `CN(CC(=O)NC1CCCCCCC1)S(=O)(=O)c1cccc2cccnc12` the AC50 [1] was 0.891 µM [rising, full curve, poor fit].

In the case of `Cc1cccn2c(=O)c3cc(C(=O)NC4CCCC4)sc3nc12`, the AC50 [1] is reported as 2 µM [rising, full curve].

For `COc1ccc(C(=O)NCC(=O)OCC(=O)c2ccc(Cl)cc2)cc1OC`, the AC50 [1] was 12.6 µM [falling, partial curve, poor fit].

With `O=C(CSc1nc2ccccc2[nH]1)Nc1ccc(F)cc1` the AC50 [1] was 2.91 µM [falling, partial curve].

In the case of `CCN(CC)C(=O)Cn1ccc(NC(C)=O)nc1=O`, the AC50 [1] is reported as 17.8 µM [rising, single point].

In the case of `O=C(O)c1cc2nccc(-c3ccco3)n2n1`, the AC50 [1] is reported as 10 µM [rising, partial curve].

For `COc1cccc(/C=N/NC(=O)Cn2nc([N+](=O)[O-])cc2C)c1`, the AC50 [1] was 6.31 µM [rising, single point].

In the case of `COc1ccc(CNCC(O)(c2ccccc2)c2ccc(F)cc2)cc1OC` (stereo not given), the AC50 [1] is reported as 35.5 µM [falling, single point].

In the case of `COc1ccccc1C(=O)C1CCCN(C(=O)c2cn3cc(Cl)ccc3n2)C1` (stereo not given), the AC50 [1] is reported as 8.91 µM [falling, partial curve].

In the case of `CCOc1ccc(N(CC(=O)NCc2ccc(F)cc2)S(=O)(=O)c2c(C)noc2C)cc1`, the AC50 [1] is reported as 6.51 µM [rising, single point].
